Some results were stated once for a whole list of compounds, not compound by compound.
Test system: ex vivo human skin explants
Assay: Toxicity and metabolic activity, MTT assay on ex vivo human skin explants (Example 3)
Type: cell-based
Settings: 48 hours post treatment

Structure (SMILES): CCCCCCCCCCCCOS(=O)(=O)[O-].[Na+] [SDS, sodium dodecyl sulfate]
- metabolic activity (viability) compared to the untreated skin control: < 10%
